Tested on: Hela cells
Assay: Fluorescence imaging of Hela cells loaded with caged coumarin, UV uncaging
Format: cell-based
Conditions: 2 μM for 1 hour

Q: Which results are given for “AM ester of 6-chloro-7-(2-nitrophenyl)ethoxy-coumarin 3-carboxamide [Compound 3]”?
A: fluorescence intensity of loaded cells prior to uncaging: no difference in fluorescence intensity of loaded cells from control cells; cellular blue fluorescence after UV photolysis (UV 330-380 nm): sudden jump of cellular blue fluorescence

Reference: patent US7304168B2, “Photo-caged fluorescent molecules” (Board of Regents, University of Texas System, priority 2003, dated 2007)
